Data: PubChem BioAssay AID1487 (National Center for Advancing Translational Sciences (NCATS), 2009)
Several values for one entry are separate records, joined by “and”; a condition that tells them apart may be missing. Identical values can stand only once. The list shows a part of the results. Further columns of the screen follow, without active or inactive calls. Most of these compounds were active or inconclusive in the main read-out, so they are no random draw. The note in brackets gives the kind of curve behind each potency; many fits are weak.

Test: qHTS Assay for Modulators of Lamin A Splicing
Conditions: HeLa LMNA splicing GFP/RFP minigene ratio, 48 h
In short: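 S3 HeLa stable clones carrying a lamin A-EGFP splicing minigene plus DsRed2 were seeded at 600 cells/well in Opti-MEM with 2% FBS, pin-dosed and incubated 48 h at 37°C. Acumen cytometry (488 nm) gave the GFP/RFP total-intensity ratio.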

[1] = measured here: GFP splicing reporter channel
[2] = measured here: RFP viability control channel

Compound | AC50 [1] | AC50 [2]
Cc1ccc(N2CC(NC(=O)C3CCCCC3)CC2=O)cc1C (stereo not given) | 3.16 µM [falling, partial curve, poor fit] | 6.31 µM [falling, full curve, poor fit]
COc1ccc(C2OC(=O)CC2C(=O)NC(C)C)cc1 (stereo not given) | 0.398 µM [falling, single point] | 0.631 µM [falling, full curve, poor fit]
COc1ccc(CC(=O)NNc2ncnc3c2cnn3-c2ccc(C)cc2)cc1 | – | 22.4 µM [rising, single point]
O=S(=O)(Nc1ccccc1)c1ccc(Oc2ncc(C(F)(F)F)cc2Cl)cc1 | – | 17.8 µM [rising, single point]
Cc1ccc(S(=O)(=O)N2CCN(C(=O)CSC3CCCC3)CC2)c(C)c1 | – | 28.2 µM [rising, single point]
CCCN(CCC)CC(O)Cn1cc(/C=C/C(=O)c2cccs2)c2ccccc21 (stereo not given) | 15.8 µM [falling, single point] | 15.8 µM [falling, single point]
CCc1nc(NCCc2ccccn2)c2nnn(Cc3ccccc3F)c2n1 | – | 35.5 µM [rising, single point]
COc1cc2c(cc1NC(=O)c1cccc(F)c1)CCCC2 | 20 µM [rising, single point] | 31.6 µM [rising, single point]
CC(C)NC[C@@H](O)COc1cccc2ccccc12 | 35.5 µM [falling, single point] and 12.6 µM [rising, partial curve] | 35.5 µM [falling, single point] and 2.51 µM [rising, single point]
COc1cc(NC(=O)CCNS(=O)(=O)c2ccc3c(c2)CCN3C(=O)C2CC2)cc(OC)c1 | – | 0.562 µM [falling, full curve]
N#CC(C#N)=c1ccc2c(c1)NC1(CCCCC1)N=2 | 22.4 µM [falling, single point] | 22.4 µM [falling, single point]
O=C(CCN1CCc2ccccc2CC1)c1ccc2c(c1)OCCO2 | – | 12.6 µM [rising, partial curve, poor fit]
Brc1csc(/C=N/Nc2nc3ccccc3s2)c1 | – | 0.0316 µM [rising, full curve, poor fit]
O=Cc1c(Sc2ccccn2)nc2ccccn2c1=O | – | 35.5 µM [falling, single point]
COc1ccc(CN2C(=O)CCC2(C)C(=O)NC2CCCCCC2)cc1 (stereo not given) | – | 0.0501 µM [falling, full curve, poor fit]
CCOc1ccccc1-c1nc(C(N)=O)c2[nH]c(=O)n(-c3ccccc3)c2n1 | – | 3.55 µM [falling, partial curve, poor fit]
CCc1cn([C@H]2C[C@H](O)[C@@H](CO)O2)c(=O)[nH]c1=O | 0.0794 µM [rising, full curve, poor fit] | 0.447 µM [rising, full curve, poor fit]
O=c1c2cnn(-c3ccccc3)c2nc(-c2ccco2)n1-c1ccccc1 | 5.01 µM [rising, partial curve, poor fit] | 7.94 µM [rising, partial curve]
Cc1cc(C(=O)OC(C(=O)Nc2cccc(C(F)(F)F)c2)c2ccccc2)c(C)o1 (stereo not given) | – | 35.5 µM [rising, single point]

Compound | AC50 [1] | AC50 [2]
CC(=O)NN1C(=O)/C(=C\c2ccc(Br)o2)SC1=S | 35.5 µM [rising, single point] | 35.5 µM [rising, single point]
Cn1cnc([N+](=O)[O-])c1S(=O)(=O)c1cccc(Cl)c1 | – | 35.5 µM [rising, single point]
CC(C)c1nnc(NC(=O)CSc2nc3ccccc3s2)s1 | 28.2 µM [rising, single point] | –
Cc1nnc2ccc(Oc3ccc(-c4ccccc4)cc3)nn12 | – | 17.8 µM [rising, partial curve]
COc1ccc(N2CCN(C(c3ccccc3)c3nnc(-c4ccccc4Cl)o3)CC2)cc1 (stereo not given) | 0.01 µM [falling, full curve, poor fit] | –
CCn1c(SCC(=O)NNC(=O)c2ccccc2)nnc1-c1ccco1 | 3.98 µM [rising, single point] | 5.01 µM [rising, partial curve]
NC(=O)C1CCN(C(=O)Cc2ccc([N+](=O)[O-])cc2)CC1 | – | 10 µM [rising, partial curve]
Cc1ccc(CS(=O)(=O)Cc2ccc(C(=O)NCCc3ccc(Cl)cc3)o2)cc1 | 3.55 µM [falling, full curve, poor fit] | –
Cc1ccc(-c2noc(C3CCN(S(=O)(=O)c4ccc5c(c4)OCCO5)CC3)n2)o1 | – | 14.1 µM [rising, partial curve]
Cc1cc(=O)[nH]c(-n2nc(C)cc2C)n1 | 15.8 µM [falling, single point] | 35.5 µM [falling, single point]
Cc1noc(C)c1S(=O)(=O)N1CCC(C(=O)N2CCN(c3ccccc3Cl)CC2)CC1 | – | 14.1 µM [rising, single point]
C[N+]1(C)CCC[C@@H](OC(=O)C(O)(c2ccccc2)c2ccccc2)C1 | 0.0562 µM [falling, full curve] | 0.0316 µM [falling, partial curve, poor fit]
COc1ccccc1OCC(=O)NNC(=O)c1ccoc1C | 0.00891 µM [rising, full curve, poor fit] | 0.01 µM [rising, full curve, poor fit]
NC(=O)CSc1nccn1Cc1ccc2c(c1)OCO2 | 0.501 µM [falling, partial curve] | –
COc1ccccc1CNc1ncnc2ccc(-c3cccc(C#N)c3)cc12 | 14.1 µM [falling, partial curve] | 11.2 µM [falling, single point]
COc1ccc2c(c1OC)C(=O)OC2Nc1nc(-c2cc3ccccc3oc2=O)cs1 (stereo not given) | – | 12.6 µM [rising, single point]
C/C(CCc1ccc2c(c1)OCO2)=N\NC(=S)NC(C)C | – | 35.5 µM [falling, partial curve, poor fit]
CN(C)C(=S)NC1(C)CCS(=O)(=O)C1 (stereo not given) | – | 6.31 µM [rising, single point]
Fc1cccc(CSc2ccc3nnc(-c4ccccn4)n3n2)c1 | – | 0.02 µM [rising, full curve]

Compound | AC50 [1] | AC50 [2]
CC(C)OCC1CC(CC(=O)Nc2ccc([N+](=O)[O-])cc2)C(=O)O1 (stereo not given) | 0.1 µM [falling, full curve, poor fit] | –
Cn1c(-c2sc3ccccc3c2Cl)n[nH]c1=S | – | 14.1 µM [falling, partial curve]
S=C(NCC1CCCCC1)Nc1ccc(Oc2ccccc2)cc1 | 14.1 µM [rising, single point] | –
O=C(CSc1ccc2ccccc2c1)Nc1ccncc1 | – | 6.31 µM [rising, partial curve]
c1ccc(CNC23CC4CC(CC(C4)C2)C3)nc1 | 4.47 µM [falling, full curve, poor fit] | –
CCN(CC)S(=O)(=O)c1ccc(S(=O)(=O)Nc2ccc3c(c2)oc2ccccc23)cc1 | 14.1 µM [rising, partial curve] | 22.4 µM [rising, single point]
Cc1cc(-c2ccc(C)c(S(=O)(=O)NCc3ccc(Cl)cc3)c2)on1 | 11.2 µM [falling, partial curve, poor fit] | –
c1ccc(-c2cc(-c3nc4ccccc4[nH]3)c3ccccc3n2)cc1 | – | 1.12 µM [falling, full curve, poor fit]
CCC(=O)Nc1ccc2nc(SCC(=O)N3CCc4ccccc43)sc2c1 | 1.58 µM [rising, full curve] | –
COc1cc(C(=O)NC(=S)NCc2ccco2)cc(OC)c1OC | – | 0.447 µM [falling, full curve, poor fit]
O=C(Nc1cccc(NC(=O)c2ccc(-c3ccc(Br)cc3)o2)c1)c1ccco1 | – | 11.2 µM [rising, partial curve]
COCCNC(=O)/C(C#N)=C/c1cccc(/C=C(\C#N)C(=O)NCCOC)c1 | 35.5 µM [falling, single point] | 35.5 µM [falling, single point]
O=C(CSCc1cccc(CSCC(=O)Nc2ccc3ccccc3c2)n1)Nc1ccc2ccccc2c1 | 14.1 µM [rising, partial curve] | 12.6 µM [rising, partial curve]
CCCCn1c(CCC)nc([N+](=O)[O-])c1Sc1ccc(Cl)cn1 | 12.6 µM [falling, partial curve] | 35.5 µM [falling, single point]
C/C(=N\NC(=O)c1c[nH]c2ccccc12)c1ccccn1 | – | 6.31 µM [rising, partial curve]
O=C(NCc1ccc(Cl)cc1)C(=O)NCC(c1ccco1)S(=O)(=O)c1cccs1 (stereo not given) | 25.1 µM [falling, single point] | 0.01 µM [falling, full curve, poor fit]
O=C(N/N=C/c1ccccc1O)c1cccc(C(F)(F)F)c1 | – | 10 µM [rising, partial curve]
Cc1cc(C(=O)CSc2nnc(-c3ccccc3)o2)c(C)n1CC1COc2ccccc2O1 (stereo not given) | 35.5 µM [falling, partial curve, poor fit] | –
